The values below come from the supplement of paper PMC6411743.

By UniProt entry, the sequences of proteins in these tests, tags left out. Where a name states a change or a piece, a line headed by the entry shows the natural chain unless it says otherwise.
UniProt Q96G28: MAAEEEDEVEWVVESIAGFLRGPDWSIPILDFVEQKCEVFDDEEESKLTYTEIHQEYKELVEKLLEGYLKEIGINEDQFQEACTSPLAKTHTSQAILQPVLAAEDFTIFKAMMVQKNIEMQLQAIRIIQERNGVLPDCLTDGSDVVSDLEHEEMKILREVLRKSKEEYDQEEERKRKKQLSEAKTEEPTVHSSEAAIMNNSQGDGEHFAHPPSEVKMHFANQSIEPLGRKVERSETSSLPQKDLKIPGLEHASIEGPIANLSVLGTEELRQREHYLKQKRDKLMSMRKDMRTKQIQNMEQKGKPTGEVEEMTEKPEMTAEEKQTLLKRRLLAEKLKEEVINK
UniProt Q96KB5: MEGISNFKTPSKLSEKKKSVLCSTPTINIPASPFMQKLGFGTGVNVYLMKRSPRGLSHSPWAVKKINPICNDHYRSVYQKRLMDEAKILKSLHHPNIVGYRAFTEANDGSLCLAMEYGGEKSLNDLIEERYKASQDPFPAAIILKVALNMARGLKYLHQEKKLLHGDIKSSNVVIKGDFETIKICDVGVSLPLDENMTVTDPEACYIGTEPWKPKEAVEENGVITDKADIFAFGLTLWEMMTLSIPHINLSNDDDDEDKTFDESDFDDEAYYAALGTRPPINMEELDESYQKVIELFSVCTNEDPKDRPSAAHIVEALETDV
UniProt Q96E09: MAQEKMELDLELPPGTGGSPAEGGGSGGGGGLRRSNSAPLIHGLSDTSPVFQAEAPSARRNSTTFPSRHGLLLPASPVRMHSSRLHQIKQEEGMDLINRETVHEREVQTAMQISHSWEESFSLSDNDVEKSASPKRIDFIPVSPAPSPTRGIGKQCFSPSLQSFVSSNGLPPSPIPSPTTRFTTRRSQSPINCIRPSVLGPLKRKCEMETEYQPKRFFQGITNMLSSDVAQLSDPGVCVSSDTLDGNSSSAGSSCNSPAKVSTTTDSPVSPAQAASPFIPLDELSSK
UniProt Q96JK2, whole entry: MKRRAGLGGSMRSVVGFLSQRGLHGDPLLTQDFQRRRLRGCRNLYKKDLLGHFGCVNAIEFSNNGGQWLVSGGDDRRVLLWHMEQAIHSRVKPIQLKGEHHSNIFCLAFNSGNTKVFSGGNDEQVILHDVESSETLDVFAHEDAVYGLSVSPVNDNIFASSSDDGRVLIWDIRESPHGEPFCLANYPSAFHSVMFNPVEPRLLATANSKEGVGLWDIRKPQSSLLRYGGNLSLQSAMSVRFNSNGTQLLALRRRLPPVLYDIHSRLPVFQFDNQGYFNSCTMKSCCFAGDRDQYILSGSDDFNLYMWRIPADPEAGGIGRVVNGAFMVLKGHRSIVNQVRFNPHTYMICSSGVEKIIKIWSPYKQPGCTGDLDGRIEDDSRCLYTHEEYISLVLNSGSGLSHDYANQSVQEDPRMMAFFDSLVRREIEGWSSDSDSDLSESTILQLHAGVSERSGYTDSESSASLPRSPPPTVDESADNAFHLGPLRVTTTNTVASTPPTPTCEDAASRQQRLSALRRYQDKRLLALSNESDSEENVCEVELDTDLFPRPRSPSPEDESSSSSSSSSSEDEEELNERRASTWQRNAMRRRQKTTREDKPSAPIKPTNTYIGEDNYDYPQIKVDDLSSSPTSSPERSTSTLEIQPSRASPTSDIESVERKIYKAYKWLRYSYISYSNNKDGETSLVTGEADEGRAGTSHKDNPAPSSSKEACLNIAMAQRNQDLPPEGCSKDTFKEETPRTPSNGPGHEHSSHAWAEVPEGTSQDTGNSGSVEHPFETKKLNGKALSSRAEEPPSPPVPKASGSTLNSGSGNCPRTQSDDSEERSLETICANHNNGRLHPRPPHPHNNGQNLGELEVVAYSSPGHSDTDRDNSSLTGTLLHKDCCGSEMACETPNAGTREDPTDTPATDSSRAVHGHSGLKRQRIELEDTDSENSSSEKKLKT
UniProt Q96J02: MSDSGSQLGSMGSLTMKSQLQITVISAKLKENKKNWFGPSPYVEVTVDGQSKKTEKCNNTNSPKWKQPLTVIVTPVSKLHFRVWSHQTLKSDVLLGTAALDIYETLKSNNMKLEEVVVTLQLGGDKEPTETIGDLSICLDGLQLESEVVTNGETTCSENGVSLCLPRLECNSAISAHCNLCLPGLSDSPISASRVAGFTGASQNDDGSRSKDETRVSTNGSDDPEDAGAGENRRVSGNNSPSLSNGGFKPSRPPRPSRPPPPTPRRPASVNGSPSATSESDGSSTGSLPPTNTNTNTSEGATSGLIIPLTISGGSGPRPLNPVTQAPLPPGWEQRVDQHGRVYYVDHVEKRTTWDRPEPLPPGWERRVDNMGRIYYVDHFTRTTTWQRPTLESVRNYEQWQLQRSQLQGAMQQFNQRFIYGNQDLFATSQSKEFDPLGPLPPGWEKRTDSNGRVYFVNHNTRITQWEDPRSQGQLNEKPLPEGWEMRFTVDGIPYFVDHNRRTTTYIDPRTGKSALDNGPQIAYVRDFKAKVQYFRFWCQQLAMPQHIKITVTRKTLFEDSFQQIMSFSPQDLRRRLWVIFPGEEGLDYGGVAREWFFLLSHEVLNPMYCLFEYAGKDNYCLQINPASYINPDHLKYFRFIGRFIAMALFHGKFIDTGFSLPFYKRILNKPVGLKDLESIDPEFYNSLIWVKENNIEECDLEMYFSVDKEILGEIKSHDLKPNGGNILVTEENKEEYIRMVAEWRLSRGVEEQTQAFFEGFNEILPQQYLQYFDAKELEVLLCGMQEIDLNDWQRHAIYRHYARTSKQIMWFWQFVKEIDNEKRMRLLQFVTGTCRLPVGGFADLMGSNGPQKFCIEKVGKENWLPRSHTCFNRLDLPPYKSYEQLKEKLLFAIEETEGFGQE
UniProt Q96I15: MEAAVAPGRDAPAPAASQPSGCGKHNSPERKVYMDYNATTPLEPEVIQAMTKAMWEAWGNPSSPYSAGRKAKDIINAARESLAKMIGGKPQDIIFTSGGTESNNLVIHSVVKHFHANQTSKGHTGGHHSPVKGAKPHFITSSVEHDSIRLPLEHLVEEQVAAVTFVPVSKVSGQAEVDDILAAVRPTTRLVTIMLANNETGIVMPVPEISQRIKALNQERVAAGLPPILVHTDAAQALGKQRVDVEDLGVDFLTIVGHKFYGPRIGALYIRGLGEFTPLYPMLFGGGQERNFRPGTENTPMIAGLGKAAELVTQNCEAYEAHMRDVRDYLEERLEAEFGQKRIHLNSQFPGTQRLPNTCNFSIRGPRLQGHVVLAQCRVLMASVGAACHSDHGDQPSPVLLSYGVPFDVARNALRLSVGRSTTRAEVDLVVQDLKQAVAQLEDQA
UniProt Q96EY8: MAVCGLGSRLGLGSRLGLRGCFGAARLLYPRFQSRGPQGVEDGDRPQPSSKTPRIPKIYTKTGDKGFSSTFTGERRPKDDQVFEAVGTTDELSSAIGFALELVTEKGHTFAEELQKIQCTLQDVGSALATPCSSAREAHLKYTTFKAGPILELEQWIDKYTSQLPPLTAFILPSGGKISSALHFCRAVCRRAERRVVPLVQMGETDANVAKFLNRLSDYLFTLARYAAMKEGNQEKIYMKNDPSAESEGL
UniProt Q969E8: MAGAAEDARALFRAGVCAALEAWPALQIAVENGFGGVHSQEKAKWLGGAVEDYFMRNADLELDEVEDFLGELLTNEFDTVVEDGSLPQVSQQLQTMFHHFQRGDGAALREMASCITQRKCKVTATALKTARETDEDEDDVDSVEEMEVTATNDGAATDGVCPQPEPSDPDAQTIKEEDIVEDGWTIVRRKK
UniProt Q96ES7: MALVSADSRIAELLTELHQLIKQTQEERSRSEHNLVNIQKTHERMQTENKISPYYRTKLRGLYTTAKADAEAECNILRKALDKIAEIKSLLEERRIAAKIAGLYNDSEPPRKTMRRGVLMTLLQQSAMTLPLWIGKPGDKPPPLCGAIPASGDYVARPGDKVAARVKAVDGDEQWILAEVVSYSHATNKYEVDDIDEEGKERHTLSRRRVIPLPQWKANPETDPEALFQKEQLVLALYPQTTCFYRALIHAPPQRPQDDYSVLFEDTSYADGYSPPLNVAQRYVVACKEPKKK
UniProt Q96J84: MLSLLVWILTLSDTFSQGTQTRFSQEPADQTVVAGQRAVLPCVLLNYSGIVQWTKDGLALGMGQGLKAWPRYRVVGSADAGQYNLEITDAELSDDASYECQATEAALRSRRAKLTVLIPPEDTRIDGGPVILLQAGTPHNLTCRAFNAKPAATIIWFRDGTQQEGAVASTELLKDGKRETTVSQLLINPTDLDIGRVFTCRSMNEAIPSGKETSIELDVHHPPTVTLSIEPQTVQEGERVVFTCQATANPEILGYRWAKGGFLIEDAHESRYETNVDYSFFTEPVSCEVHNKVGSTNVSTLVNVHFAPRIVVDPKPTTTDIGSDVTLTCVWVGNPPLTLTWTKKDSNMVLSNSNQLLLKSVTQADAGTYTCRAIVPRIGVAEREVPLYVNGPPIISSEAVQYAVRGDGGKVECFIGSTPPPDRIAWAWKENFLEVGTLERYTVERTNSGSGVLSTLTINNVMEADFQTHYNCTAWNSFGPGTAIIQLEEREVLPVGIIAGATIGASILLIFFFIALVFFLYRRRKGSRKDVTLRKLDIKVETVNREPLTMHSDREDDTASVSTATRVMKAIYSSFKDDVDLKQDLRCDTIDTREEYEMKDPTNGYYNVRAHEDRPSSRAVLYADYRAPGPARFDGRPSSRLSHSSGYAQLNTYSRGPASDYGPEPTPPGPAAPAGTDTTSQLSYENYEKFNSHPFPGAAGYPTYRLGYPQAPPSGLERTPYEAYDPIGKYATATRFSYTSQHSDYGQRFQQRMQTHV
UniProt Q96CB9: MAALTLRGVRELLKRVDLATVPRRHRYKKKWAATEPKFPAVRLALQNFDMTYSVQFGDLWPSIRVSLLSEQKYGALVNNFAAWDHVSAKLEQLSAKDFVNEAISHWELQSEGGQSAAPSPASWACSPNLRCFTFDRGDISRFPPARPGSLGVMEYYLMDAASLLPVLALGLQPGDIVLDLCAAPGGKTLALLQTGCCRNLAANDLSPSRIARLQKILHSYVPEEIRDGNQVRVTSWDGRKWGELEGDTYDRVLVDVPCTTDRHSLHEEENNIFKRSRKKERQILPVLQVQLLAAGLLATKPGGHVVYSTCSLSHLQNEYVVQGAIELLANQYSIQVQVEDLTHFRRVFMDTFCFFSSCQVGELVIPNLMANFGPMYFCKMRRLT
UniProt Q96CW6: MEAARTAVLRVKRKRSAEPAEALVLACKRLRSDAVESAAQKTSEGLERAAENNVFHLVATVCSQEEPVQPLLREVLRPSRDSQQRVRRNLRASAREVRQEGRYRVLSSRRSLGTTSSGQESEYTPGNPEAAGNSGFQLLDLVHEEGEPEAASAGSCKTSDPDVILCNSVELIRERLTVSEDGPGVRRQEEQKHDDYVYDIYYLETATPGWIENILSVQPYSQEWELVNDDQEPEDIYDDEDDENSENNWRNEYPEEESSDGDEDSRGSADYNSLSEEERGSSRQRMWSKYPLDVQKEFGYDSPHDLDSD
UniProt Q96NW4, whole entry: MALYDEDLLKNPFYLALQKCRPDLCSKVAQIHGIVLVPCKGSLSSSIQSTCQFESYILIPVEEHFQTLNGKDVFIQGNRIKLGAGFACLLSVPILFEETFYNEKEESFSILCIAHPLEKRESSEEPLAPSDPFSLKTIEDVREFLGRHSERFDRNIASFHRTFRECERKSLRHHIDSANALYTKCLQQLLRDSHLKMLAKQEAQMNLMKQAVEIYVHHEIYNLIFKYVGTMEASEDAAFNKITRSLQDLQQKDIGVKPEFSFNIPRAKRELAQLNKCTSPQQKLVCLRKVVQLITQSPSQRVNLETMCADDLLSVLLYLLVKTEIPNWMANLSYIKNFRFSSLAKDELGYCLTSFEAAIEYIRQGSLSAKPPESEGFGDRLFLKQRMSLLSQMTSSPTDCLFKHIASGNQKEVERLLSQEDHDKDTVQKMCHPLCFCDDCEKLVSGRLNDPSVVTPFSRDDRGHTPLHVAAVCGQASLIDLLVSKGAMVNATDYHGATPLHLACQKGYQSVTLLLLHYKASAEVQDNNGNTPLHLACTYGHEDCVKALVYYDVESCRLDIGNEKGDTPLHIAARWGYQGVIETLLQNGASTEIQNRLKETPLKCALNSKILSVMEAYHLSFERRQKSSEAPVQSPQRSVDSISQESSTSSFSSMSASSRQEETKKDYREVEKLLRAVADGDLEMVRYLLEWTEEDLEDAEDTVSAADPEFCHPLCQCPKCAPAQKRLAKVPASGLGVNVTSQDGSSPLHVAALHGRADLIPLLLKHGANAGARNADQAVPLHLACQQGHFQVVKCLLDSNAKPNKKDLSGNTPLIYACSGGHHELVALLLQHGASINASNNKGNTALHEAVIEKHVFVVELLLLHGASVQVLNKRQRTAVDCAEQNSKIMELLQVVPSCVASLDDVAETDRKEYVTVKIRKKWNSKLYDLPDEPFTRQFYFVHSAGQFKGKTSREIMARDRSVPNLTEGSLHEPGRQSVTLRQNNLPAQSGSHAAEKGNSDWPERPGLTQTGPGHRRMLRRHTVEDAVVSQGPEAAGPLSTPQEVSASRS

± gives the standard deviation of the averaged measurements. Only a part is listed here, and it is no random draw. Most values lie at the level of the controls, where differences are scatter.

Compound in the assay: Nc1ncnc2c1ncn2[C@@H]1O[C@H](COP(=O)(O)OP(=O)(O)NP(=O)(O)O)[C@@H](O)[C@H]1O [adenylyl imidodiphosphate]
As to the kind of experiment: NP40-soluble protein abundance relative to vehicle (solubility fold change) (ratio); higher = more soluble protein in presence of AMP-PNP. The conditions noted are these: concentration: 0.1mM. Put shortly:
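Each value is a fold change relative to the detergent-processed vehicle, calculated per replicate from vsn-normalised intensities. Jurkat crude lysate received eight concentrations (0.1 to 10 mM) for 10 min at room temperature and 3 min at 37 °C, then was solubilised in 0.8% NP40 with benzonase (60 min, 4 °C). The ultracentrifuged supernatant was TMT-labelled and run by LC-MS/MS in three independent experiments.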
For the target RBM14 (UniProt Q96PK6), the NP40-soluble protein abundance was 1 ± 0.043. For the target MSI2 (UniProt Q96DH6), the NP40-soluble protein abundance is 1.01 ± 0.022. Next, UniProt Q96G28 and related entries: 0.984 ± 0.036; UniProt Q96KB5 and related entries: 1.01 ± 0.037. As for FAM122A (UniProt Q96E09), the figure is 0.98 ± 0.011; as for PGM2 (UniProt Q96G03), 1.02 ± 0.025. Next, UniProt Q96JK2 and related entries: 0.995 ± 0.014; UniProt Q96J02 and related entries: 0.987 ± 0.032; UniProt Q96E11 and related entries: 0.984 ± 0.026. ITPKC (UniProt Q96DU7): the NP40-soluble protein abundance came out at 0.969 ± 0.033. As for UniProt Q96GJ1 and related entries, the figure is 0.9944 ± 0.0072; as for NRBF2 (UniProt Q96F24), 0.993 ± 0.031. Next, UniProt Q93100 and related entries: 1.03 ± 0.029; UniProt Q96BY9 and related entries: 1.025 ± 0.0082. Next, UniProt Q96I15 and related entries: 1 ± 0.036; UniProt Q96PE3 and related entries: 1.01 ± 0.043; MMAB (UniProt Q96EY8): 0.974 ± 0.025. For TSR2 (UniProt Q969E8), the NP40-soluble protein abundance came out at 0.972 ± 0.022. As for UniProt Q96ES7, the figure is 0.966 ± 0.05; as for UniProt Q96J84 and related entries, 0.995 ± 0.021.

Take NSUN4 (UniProt Q96CB9): the NP40-soluble protein abundance came to 1.03 ± 0.058. As for SLC7A6OS (UniProt Q96CW6), the figure is 0.981 ± 0.018. As for C8orf76 (UniProt Q96K31), the figure is 1.02 ± 0.028; as for ANKRD27 (UniProt Q96NW4), 0.994 ± 0.0084. As for UniProt Q969Y2 and related entries, the NP40-soluble protein abundance amounted to 1.01 ± 0.028. Next, AIDA (UniProt Q96BJ3): 0.946 ± 0.039.
